Experimental data from PubChem BioAssay AID1117319 (Southern Research Institute, 2015).
The campaign covered roughly 260,000 compounds. About 1,500 (0.58%) were called active. Inconclusive results, whose numbers are uncertain, are shown with a selection of clear calls.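 The calls were made as follows: active = inhibition above a set limit at one or more doses, reproduced on every date tested; inconclusive = results disagree between test dates, or hit never tested in dose response; inactive = the rest.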

Chains of the proteins cited; added tags and fusions are not shown. Lines headed by an entry give the natural chain unless they say otherwise; changes in a name come on top.
UniProt P69720: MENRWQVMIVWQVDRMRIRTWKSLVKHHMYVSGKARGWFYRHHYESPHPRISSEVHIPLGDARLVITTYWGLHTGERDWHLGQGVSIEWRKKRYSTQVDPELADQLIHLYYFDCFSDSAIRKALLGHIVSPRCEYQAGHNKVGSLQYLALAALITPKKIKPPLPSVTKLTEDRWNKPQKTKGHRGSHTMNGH
UniProt P69721: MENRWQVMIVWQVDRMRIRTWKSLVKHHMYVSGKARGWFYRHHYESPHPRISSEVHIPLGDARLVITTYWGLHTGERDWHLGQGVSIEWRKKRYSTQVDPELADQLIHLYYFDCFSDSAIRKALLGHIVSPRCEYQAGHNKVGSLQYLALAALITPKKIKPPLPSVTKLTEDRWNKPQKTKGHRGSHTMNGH
UniProt P69722: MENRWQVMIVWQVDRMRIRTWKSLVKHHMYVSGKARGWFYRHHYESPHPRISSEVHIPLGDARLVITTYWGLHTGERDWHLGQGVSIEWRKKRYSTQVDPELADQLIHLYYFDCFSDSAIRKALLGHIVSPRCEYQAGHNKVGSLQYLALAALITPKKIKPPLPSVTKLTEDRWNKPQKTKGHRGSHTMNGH
UniProt P69723: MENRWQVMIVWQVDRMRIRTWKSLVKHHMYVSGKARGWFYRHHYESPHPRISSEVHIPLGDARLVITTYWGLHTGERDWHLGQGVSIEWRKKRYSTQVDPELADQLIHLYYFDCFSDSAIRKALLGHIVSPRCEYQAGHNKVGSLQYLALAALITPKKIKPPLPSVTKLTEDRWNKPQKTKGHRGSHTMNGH
UniProt Q9HC16: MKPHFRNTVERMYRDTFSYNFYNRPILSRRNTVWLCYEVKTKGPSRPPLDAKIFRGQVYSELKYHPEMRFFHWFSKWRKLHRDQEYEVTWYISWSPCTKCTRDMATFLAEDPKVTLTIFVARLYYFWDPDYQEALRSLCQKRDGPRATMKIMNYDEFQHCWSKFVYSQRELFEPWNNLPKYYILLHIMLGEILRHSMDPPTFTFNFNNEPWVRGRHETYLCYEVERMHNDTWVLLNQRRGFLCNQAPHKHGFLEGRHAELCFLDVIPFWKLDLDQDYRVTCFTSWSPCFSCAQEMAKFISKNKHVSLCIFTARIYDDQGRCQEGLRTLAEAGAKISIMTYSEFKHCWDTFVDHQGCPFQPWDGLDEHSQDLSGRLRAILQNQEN

These compounds were tested against Virion infectivity factor (Human immunodeficiency virus type 1 group M subtype B (isolate BH10)) + Virion infectivity factor (Human immunodeficiency virus type 1 group M subtype B (isolate BRU/LAI)) + Virion infectivity factor (Human immunodeficiency virus type 1 group M subtype B (isolate PCV12)) + Virion infectivity factor (Human immunodeficiency virus type 1 group M subtype B (isolate HXB2)) + DNA dC->dU-editing enzyme APOBEC-3G (Homo sapiens) (UniProt P69720+P69721+P69722+P69723+Q9HC16) (assay: inhibitors of Vif binding to APOBEC3G peptide, primary screen, biochemical, TR-FRET, GST-Vif 1-94, biotin-A3G peptide, dose response retest (AID 1117319;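 also: Vif residues 1-94 fused to GST binding biotinylated APOBEC3G peptide 110-148; 0% = full assay without inhibitor and 100% = GST in place of GST-Vif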)). Conditions: stronger effect = higher value.

SMILES	inhibition
OC[C@H]1O[C@@H](n2cnc3c(Nc4ccccc4)ncnc32)[C@H](O)[C@@H]1O	inconclusive: 40.2%
CC(NS(=O)(=O)c1ccc2[nH]c(=O)c(=O)[nH]c2c1)C(=O)O (centres undefined)	inconclusive: 44.3%
COc1ccc(CCNC(=S)NCCc2c[nH]c3ccccc23)cc1	inconclusive: 44.7%
COc1cc(/C=N/Nc2nc(N3CCCC3)nc(N3CCCC3)n2)ccc1O	inconclusive: 61.7%
CN(C)CCCNC(CC(=O)Nc1cccc([N+](=O)[O-])c1)C(=O)O (centres undefined)	inconclusive: 37.8%
CCOc1ccc(Nc2nc(CC(=O)OC)cc(=O)[nH]2)cc1	inconclusive: 45.5%
COc1ccc(C=NCCC2(O)CC(C)N(C)CC2C)cc1 (centres undefined)	inconclusive: 34.3%
Cc1ccccc1NC(=O)CN1C(=O)NC(C)(c2ccc3c(c2)OCO3)C1=O (centres undefined)	inconclusive: 39.5%
Cc1nn(C)c(C)c1S(=O)(=O)N(CC(=O)NCc1cccs1)c1ccc(C(C)C)cc1	inconclusive: 34.3%
NC(=O)c1ccccc1NC(=O)CCN1C(=O)c2ccccc2C1=O	inconclusive: 42.7%
CCCc1cc(=O)n2[nH]c(C)c(-c3ccccc3)c2n1	inconclusive: 33.3%
O=c1[nH][nH]c2cc(=O)n(-c3cccc(C(F)(F)F)c3)nc12	inconclusive: 33.2%
Cc1cc(C(=O)NC(=S)Nc2ccccc2N2CCOCC2)ccc1[N+](=O)[O-]	inconclusive: 40.8%
COc1cc(/C=C/C(=O)Nc2cc(S(=O)(=O)N3CCOCC3)ccc2N2CCCC2)cc(OC)c1OC	inconclusive: 36.5%
O=C(OC(C(=O)NCc1ccccc1)c1ccccc1)c1ccco1 (centres undefined)	inconclusive: 37.6%
Cn1cc([N+](=O)[O-])c(C(=O)NC2CCCCCCC2)n1	inconclusive: 42.3%
C/C=C/c1ccc(OCC(=O)NCc2ccccc2OC)c(OC)c1	inconclusive: 36.9%
Cn1c(CCNC(=O)c2ccc(F)cc2)nc2ccccc21	inconclusive: -3.71%
Cc1cc(C)nc(NS(=O)(=O)c2ccc(NC(=O)Nc3ccccc3)cc2)n1	inconclusive: 37.9%
C(=N\NCc1ccccc1)/c1ccc2ncccc2c1	inconclusive: 45.4%
O=C(Nc1ccc(S(=O)(=O)N2CCCC2)cc1)c1cc(=O)c2ccccc2o1	inactive: -4.62%
Cn1c(=O)[nH]c(=O)c2cc(C(=O)c3cc(F)ccc3O)cnc21	inconclusive: 49.1%
CCCCC(c1nnnn1CS(=O)(=O)c1ccc(C)cc1)N1CCN(C)CC1 (centres undefined)	inconclusive: 51.3%
Cn1c(=O)n(C)c2cc(S(=O)(=O)NCc3ccccc3)ccc21	inconclusive: 47.1%

Some of the entries so far, field by field.
COc1cc(/C=C/C(=O)Nc2cc(S(=O)(=O)N3CCOCC3)ccc2N2CCCC2)cc(OC)c1OC
  inhibition: inconclusive: 36.5%
C(=N\NCc1ccccc1)/c1ccc2ncccc2c1
  inhibition: inconclusive: 45.4%
